Results as given in the supplement of paper PMC10849652.
This is one part of the list.

The chains behind the UniProt entries cited, without tags or fusion partners. Where a name states a change or a piece, a line headed by the entry shows the natural chain unless it says otherwise.
UniProt Q92947: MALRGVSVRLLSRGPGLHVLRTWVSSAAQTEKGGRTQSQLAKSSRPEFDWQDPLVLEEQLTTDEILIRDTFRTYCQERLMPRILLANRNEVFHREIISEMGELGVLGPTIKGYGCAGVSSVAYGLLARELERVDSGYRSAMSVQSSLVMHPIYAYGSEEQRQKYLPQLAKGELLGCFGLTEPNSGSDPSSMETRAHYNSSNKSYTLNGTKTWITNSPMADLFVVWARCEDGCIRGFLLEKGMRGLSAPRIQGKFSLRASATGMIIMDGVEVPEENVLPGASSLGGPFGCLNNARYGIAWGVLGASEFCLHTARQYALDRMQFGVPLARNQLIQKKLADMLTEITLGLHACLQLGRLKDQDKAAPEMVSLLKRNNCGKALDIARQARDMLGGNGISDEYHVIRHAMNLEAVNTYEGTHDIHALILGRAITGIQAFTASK
UniProt Q9BWH2: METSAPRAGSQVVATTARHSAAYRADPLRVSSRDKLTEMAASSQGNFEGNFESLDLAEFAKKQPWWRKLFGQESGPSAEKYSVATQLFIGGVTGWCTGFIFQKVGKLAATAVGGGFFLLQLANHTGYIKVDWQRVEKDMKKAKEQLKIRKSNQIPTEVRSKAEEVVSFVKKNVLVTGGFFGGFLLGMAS
UniProt P51114, whole entry, looked up: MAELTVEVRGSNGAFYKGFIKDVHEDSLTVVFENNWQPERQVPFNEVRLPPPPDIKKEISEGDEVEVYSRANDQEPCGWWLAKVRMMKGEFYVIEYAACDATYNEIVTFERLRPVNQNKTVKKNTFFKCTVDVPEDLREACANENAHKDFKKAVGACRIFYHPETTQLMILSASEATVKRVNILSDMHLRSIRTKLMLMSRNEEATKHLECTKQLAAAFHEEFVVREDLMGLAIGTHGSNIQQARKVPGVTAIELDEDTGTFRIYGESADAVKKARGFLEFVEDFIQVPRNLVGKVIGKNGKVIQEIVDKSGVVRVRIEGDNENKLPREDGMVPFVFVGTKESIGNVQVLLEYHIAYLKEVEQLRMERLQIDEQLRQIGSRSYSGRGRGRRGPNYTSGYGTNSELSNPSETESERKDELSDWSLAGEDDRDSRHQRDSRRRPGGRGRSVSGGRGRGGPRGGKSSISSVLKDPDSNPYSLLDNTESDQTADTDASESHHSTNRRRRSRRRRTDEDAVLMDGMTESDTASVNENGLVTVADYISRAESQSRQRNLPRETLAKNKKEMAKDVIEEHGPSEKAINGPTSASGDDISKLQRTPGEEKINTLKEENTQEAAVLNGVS
UniProt P0CL80: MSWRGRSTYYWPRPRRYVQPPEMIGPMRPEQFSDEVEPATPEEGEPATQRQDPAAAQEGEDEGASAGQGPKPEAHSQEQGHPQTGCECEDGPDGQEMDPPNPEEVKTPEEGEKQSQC
UniProt Q92538, whole entry, looked up: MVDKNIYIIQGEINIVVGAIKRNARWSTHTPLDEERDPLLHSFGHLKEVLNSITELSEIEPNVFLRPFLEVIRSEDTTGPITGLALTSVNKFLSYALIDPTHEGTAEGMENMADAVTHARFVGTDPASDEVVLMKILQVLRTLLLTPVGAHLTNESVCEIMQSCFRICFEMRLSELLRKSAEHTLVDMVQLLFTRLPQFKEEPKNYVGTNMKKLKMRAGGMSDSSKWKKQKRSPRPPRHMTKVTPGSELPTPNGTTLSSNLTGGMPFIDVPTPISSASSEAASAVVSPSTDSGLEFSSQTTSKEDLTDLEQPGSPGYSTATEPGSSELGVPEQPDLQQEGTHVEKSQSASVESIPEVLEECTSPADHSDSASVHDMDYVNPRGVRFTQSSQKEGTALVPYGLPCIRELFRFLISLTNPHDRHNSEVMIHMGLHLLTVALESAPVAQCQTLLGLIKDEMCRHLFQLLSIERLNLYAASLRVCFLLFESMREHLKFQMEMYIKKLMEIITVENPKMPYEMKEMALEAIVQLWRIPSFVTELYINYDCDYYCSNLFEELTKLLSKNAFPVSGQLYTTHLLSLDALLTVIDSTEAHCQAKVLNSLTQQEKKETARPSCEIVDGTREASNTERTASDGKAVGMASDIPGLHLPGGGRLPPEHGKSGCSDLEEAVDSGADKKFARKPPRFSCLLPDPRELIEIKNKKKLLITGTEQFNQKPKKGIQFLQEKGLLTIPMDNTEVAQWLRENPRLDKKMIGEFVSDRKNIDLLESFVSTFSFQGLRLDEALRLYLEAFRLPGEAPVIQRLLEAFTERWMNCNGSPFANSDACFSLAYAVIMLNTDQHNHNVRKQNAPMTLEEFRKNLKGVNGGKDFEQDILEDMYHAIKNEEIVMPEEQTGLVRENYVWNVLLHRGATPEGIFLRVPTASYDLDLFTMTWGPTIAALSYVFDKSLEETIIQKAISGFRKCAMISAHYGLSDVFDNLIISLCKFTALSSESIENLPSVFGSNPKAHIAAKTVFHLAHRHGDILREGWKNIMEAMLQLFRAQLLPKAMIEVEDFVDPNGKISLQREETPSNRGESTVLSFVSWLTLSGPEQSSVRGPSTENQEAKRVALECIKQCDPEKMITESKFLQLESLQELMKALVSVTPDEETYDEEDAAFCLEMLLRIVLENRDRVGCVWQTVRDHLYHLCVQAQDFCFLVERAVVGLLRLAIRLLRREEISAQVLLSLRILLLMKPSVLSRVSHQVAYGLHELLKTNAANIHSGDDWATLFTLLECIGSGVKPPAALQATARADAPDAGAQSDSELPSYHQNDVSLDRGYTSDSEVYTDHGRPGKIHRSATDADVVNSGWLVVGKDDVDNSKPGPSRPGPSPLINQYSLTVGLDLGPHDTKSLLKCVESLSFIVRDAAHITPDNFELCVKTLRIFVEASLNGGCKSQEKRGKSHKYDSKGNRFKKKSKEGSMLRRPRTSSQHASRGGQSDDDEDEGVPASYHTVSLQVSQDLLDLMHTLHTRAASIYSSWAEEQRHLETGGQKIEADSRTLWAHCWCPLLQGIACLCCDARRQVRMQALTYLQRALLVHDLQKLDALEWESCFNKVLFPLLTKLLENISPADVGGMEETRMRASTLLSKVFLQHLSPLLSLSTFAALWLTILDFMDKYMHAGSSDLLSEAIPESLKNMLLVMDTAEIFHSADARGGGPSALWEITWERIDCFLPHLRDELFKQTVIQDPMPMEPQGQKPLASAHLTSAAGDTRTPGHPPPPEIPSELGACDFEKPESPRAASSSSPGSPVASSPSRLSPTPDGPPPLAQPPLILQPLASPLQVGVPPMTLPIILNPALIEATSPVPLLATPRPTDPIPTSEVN
UniProt Q96C23: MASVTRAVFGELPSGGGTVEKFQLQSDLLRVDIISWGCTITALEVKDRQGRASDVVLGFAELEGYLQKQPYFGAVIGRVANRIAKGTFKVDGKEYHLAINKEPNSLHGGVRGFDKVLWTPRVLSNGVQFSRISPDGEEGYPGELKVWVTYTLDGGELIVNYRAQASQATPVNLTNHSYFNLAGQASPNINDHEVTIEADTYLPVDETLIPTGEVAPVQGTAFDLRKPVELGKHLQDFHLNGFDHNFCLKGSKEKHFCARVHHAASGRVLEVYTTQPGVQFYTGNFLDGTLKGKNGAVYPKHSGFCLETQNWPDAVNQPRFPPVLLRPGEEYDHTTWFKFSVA
UniProt Q96AE4: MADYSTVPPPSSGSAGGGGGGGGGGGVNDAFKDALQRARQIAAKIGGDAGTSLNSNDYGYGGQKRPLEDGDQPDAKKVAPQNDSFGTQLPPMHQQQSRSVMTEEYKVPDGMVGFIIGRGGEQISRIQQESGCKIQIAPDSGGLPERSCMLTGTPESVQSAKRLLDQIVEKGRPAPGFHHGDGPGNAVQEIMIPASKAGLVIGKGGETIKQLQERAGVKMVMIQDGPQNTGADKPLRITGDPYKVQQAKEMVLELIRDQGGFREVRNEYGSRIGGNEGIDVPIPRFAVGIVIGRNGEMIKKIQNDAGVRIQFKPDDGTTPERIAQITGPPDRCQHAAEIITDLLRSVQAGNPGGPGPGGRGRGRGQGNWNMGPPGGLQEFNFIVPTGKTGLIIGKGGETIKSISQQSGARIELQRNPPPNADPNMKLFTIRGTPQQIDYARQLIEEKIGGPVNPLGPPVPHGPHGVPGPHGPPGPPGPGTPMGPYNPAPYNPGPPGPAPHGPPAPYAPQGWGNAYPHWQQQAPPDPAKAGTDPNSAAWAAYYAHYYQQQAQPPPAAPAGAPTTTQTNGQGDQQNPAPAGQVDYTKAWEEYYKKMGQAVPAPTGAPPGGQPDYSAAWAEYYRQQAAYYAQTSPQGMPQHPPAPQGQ
UniProt Q14C86: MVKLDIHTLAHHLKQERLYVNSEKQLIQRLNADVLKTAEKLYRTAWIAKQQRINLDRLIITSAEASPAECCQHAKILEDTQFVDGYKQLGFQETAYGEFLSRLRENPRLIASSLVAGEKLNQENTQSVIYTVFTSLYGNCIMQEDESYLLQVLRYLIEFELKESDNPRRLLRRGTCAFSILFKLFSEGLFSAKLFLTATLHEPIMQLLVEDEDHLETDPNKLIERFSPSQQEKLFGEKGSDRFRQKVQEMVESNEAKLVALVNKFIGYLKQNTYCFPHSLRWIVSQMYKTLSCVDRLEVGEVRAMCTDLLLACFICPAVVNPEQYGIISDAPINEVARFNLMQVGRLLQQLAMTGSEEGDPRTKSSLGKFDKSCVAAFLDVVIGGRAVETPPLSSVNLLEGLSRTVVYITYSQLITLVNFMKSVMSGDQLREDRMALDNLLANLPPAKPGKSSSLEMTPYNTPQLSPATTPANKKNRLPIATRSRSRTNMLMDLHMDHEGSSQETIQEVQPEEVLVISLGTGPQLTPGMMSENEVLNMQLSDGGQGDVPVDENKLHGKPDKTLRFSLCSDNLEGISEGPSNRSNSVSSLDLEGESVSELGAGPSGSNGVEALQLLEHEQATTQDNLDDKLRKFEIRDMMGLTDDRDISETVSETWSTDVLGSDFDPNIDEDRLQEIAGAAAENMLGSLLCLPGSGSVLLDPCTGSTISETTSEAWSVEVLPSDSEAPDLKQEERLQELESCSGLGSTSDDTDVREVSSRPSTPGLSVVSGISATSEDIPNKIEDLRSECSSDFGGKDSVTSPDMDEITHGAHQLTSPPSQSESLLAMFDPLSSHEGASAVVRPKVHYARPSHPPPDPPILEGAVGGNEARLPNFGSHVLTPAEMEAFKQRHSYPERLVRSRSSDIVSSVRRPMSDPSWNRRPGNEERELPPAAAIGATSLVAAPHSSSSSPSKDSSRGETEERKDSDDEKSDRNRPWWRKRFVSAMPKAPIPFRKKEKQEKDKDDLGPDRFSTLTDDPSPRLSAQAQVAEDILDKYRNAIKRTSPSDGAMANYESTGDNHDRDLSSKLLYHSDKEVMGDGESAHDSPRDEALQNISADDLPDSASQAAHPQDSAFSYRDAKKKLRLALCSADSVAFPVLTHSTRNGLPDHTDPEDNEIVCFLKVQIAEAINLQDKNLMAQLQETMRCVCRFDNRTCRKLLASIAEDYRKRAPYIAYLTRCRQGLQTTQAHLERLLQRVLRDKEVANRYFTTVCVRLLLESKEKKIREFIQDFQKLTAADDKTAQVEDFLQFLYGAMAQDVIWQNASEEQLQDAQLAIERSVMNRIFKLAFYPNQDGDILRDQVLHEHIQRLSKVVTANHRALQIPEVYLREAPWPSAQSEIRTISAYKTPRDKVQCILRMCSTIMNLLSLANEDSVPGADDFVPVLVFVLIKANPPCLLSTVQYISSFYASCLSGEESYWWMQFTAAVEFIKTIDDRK
UniProt P02792: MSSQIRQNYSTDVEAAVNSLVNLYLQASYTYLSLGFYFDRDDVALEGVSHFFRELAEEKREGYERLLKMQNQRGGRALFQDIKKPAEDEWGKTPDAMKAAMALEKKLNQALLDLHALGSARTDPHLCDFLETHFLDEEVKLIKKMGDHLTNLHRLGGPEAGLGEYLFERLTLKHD
UniProt P51116, whole entry, looked up: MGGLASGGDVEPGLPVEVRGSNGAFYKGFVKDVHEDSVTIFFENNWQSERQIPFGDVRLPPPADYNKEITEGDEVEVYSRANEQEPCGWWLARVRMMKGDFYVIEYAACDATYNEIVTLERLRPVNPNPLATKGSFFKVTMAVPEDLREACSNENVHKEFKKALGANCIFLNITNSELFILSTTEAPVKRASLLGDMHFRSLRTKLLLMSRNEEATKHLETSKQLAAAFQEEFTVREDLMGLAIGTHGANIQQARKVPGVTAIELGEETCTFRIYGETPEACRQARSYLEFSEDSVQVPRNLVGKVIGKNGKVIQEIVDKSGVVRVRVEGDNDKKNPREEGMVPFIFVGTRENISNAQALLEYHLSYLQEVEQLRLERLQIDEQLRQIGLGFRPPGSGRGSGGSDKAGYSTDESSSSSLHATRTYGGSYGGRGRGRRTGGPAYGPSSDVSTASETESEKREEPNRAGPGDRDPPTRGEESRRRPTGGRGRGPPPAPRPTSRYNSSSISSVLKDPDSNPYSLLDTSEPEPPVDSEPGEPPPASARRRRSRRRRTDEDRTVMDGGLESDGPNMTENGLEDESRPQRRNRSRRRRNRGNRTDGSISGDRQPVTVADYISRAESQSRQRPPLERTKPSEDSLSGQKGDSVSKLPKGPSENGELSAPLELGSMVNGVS

Key:
Assay in all cases: log2 fold change, soluble protein after heating vs DMSO (PISA); higher = thermal stabilisation; K562 lysate, 10 uM; active = over 0.2 and 3.5 SD of the protein, either way, in both replicates (recomputed)
ibrutinib = compound: C=CC(=O)N1CCC[C@@H](n2nc(-c3ccc(Oc4ccccc4)cc3)c3c(N)ncnc32)C1 [ibrutinib]
Procedure, shortened: (§1)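 K562 pellets were dounce-homogenised in PBS pH 7.4 containing 1 mM MgCl2, and the crude extract, at 1 mg/mL protein, was exposed to 10 μM compound for 30 min. Aliquots were heated for 3 min across 48°C-58°C, pooled, brought to 0.5% NP-40 at 4°C and spun at 21,000xg for 90 min, with the supernatant taken as soluble protein. TMTpro 16plex LC-MS/MS with equalised channel sums quantified that protein. Values are log-two fold changes in thermal stability relative to solvent controls, taken from duplicates.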

[1] = compound: CC(=O)c1cnc2ccc(-c3cc(Cl)c(O)c(Cl)c3)nc2c1N[C@H]1CC[C@H](CN(C)C)CC1
Procedure, shortened: as §1

ralimetinib = compound: CC(C)(C)Cn1c(N)nc2ccc(-c3[nH]c(C(C)(C)C)nc3-c3ccc(F)cc3)nc21 [ralimetinib]
Procedure, shortened: as §1

[2] = compound: CC(C)(O)CC(=O)NCCn1ccc2ncnc(Nc3ccc(Oc4cccc(C(F)(F)F)c4)c(Cl)c3)c21
Procedure, shortened: as §1

[3] = compound: CC(C)C1=C2N=C(C=C(N2N=C1)NCC3=CC=CC=C3)NCCCCCCN
Procedure, shortened: as §1

[4] = compound: CC1=C(C(CC(=O)N1)C2=CC=C(C=C2)C(F)(F)F)C(=O)NC3=C(C=C4C(=C3)C=NN4)F
Procedure, shortened: as §1

[5] = compound: CC1=C(C2=C(C=C1)C(=O)C3=CC=CC=C3N2CCCN)C
Procedure, shortened: as §1

[6] = compound: CC1=C(C=C(C=C1)NC(=O)C2=CC(=CC=C2)C(C)(C)C#N)NC3=CC4=C(C=C3)N=CN(C4=O)C
Procedure, shortened: as §1

[7] = compound: CC1=C(C=C(C=C1)NC(=O)C2=CC(=CC=C2)N(C)C)NC(=O)C3=CC=C(C=C3)O
Procedure, shortened: as §1

[8] = compound: CC1=CC=C(C=C1)SC2=C3C=C(SC3=CN=C2)C(=O)N
Procedure, shortened: as §1

vemurafenib = compound: CCCS(=O)(=O)Nc1ccc(F)c(C(=O)c2c[nH]c3ncc(-c4ccc(Cl)cc4)cc23)c1F [vemurafenib]
Procedure, shortened: as §1

[9] = compound: CCCS(=O)(=O)Nc1ccc(F)c(C(=O)c2c[nH]c3ncc(Cl)cc23)c1F
Procedure, shortened: as §1

barasertib = compound: CCN(CCCOc1ccc2c(Nc3cc(CC(=O)Nc4cccc(F)c4)[nH]n3)ncnc2c1)CCOP(=O)(O)O [barasertib]
Procedure, shortened: as §1

[10] = compound: CC[C@@H]1C(=O)N(C)c2cnc(Nc3ccc(C(=O)NC4CCN(C)CC4)cc3OC)nc2N1C1CCCC1
Procedure, shortened: as §1

volasertib = compound: CC[C@@H]1C(=O)N(C)c2cnc(Nc3ccc(C(=O)N[C@H]4CC[C@H](N5CCN(CC6CC6)CC5)CC4)cc3OC)nc2N1C(C)C [volasertib]
Procedure, shortened: as §1

[11] = compound: CCn1c(C(=O)N(C2CC2)C2CC2)cc2c3c(ncn3C)c(Nc3cc(C)n(C)n3)nc21
Procedure, shortened: as §1

[12] = compound: CCn1cc(-c2ccnc3[nH]c(-c4cccc(CN(C)C)c4)cc23)c(-c2ccc(NC(=O)N(C)C)cc2)n1
Procedure, shortened: as §1

[13] = compound: CN1CCC(CNc2ccc3ncc(-c4cccc(OC(F)(F)F)c4)n3n2)CC1
Procedure, shortened: as §1

saracatinib = compound: CN1CCN(CCOc2cc(OC3CCOCC3)c3c(Nc4c(Cl)ccc5c4OCO5)ncnc3c2)CC1 [saracatinib]
Procedure, shortened: as §1

sotrastaurin = compound: CN1CCN(c2nc(C3=C(c4c[nH]c5ccccc45)C(=O)NC3=O)c3ccccc3n2)CC1 [sotrastaurin]
Procedure, shortened: as §1

Measured: log2 fold change

GCDH (UniProt Q92947)
inactive: ibrutinib -0.046 | [1] 0.028 | ralimetinib -0.04 | [2] 0.014 | [3] -0.051 | [4] 0.069 | [5] -0.019 | [6] 0.086 | [7] -0.017 | [8] -0.03 | vemurafenib 0.031 | [9] 0.025 | barasertib -0.054 | [10] 0.002 | volasertib 0.022 | [11] -0.003 | [12] -0.07 | [13] -0.077 | saracatinib -0.041 | sotrastaurin -0.041

GABPA (UniProt Q06546)
inactive: ibrutinib -0.004 | [1] 0.008 | ralimetinib 0.041 | [2] -0.017 | [3] -0.007 | [4] -0.008 | [5] 0.025 | [6] 0.028 | [7] 0 | [8] 0.017 | vemurafenib 0.017 | [9] 0.016 | barasertib -0.014 | [10] -0.04 | volasertib -0.006 | [11] -0.028 | [12] -0.166 | [13] 0.087 | saracatinib -0.012 | sotrastaurin 0.006

FUNDC2 (UniProt Q9BWH2)
inactive: ibrutinib 0.005 | [1] -0.015 | ralimetinib 0.013 | [2] 0.003 | [3] -0.015 | [4] -0.025 | [5] -0.007 | [6] 0.056 | [7] 0.005 | [8] -0.042 | vemurafenib 0.016 | [9] 0.004 | barasertib 0.01 | [10] 0.049 | volasertib -0.001 | [11] -0.004 | [12] -0.061 | [13] 0.064 | saracatinib 0 | sotrastaurin 0.005

Reprinted from above (2 entries):
GABPA (UniProt Q06546)
inactive: ibrutinib -0.004 | [1] 0.008 | ralimetinib 0.041 | [2] -0.017 | [3] -0.007 | [4] -0.008 | [5] 0.025 | [6] 0.028 | [7] 0 | [8] 0.017 | vemurafenib 0.017 | [9] 0.016 | barasertib -0.014 | [10] -0.04 | volasertib -0.006 | [11] -0.028 | [12] -0.166 | [13] 0.087 | saracatinib -0.012 | sotrastaurin 0.006

FUNDC2 (UniProt Q9BWH2)
inactive: ibrutinib 0.005 | [1] -0.015 | ralimetinib 0.013 | [2] 0.003 | [3] -0.015 | [4] -0.025 | [5] -0.007 | [6] 0.056 | [7] 0.005 | [8] -0.042 | vemurafenib 0.016 | [9] 0.004 | barasertib 0.01 | [10] 0.049 | volasertib -0.001 | [11] -0.004 | [12] -0.061 | [13] 0.064 | saracatinib 0 | sotrastaurin 0.005

Further records.

GAB1 isoform 2 (UniProt Q13480)
inactive: ibrutinib -0.005 | [1] -0.021 | ralimetinib 0.02 | [2] -0.032 | [3] 0.028 | [4] -0.037 | [5] -0.01 | [6] 0.052 | [7] 0 | [8] -0.004 | vemurafenib 0.074 | [9] 0.035 | barasertib -0.066 | [10] 0.12 | volasertib -0.014 | [11] -0.058 | [12] -0.134 | [13] 0.089 | saracatinib 0.034 | sotrastaurin -0.008

FXR1 (UniProt P51114)
inactive: ibrutinib 0.023 | [1] -0.011 | ralimetinib -0.017 | [2] 0.032 | [3] 0.002 | [4] 0.014 | [5] -0.006 | [6] -0.01 | [7] 0.02 | [8] 0.016 | vemurafenib -0.047 | [9] 0.009 | barasertib 0.01 | [10] -0.036 | volasertib -0.022 | [11] 0.018 | [12] -0.107 | [13] 0.012 | saracatinib -0.036 | sotrastaurin -0.011

GBE1 (UniProt Q04446)
inactive: ibrutinib 0.015 | [1] 0.02 | ralimetinib -0.013 | [2] -0.001 | [3] -0.001 | [4] -0.025 | [5] 0.049 | [6] -0.033 | [7] 0.047 | [8] -0.02 | vemurafenib 0.024 | [9] 0.006 | barasertib 0.08 | [10] 0.019 | volasertib -0.109 | [11] 0 | [12] 0.006 | [13] -0.057 | saracatinib 0.007 | sotrastaurin 0.001

GAGE12F (UniProt P0CL80)
inactive: ibrutinib 0.074 | [1] -0.048 | ralimetinib 0.05 | [2] -0.079 | [3] 0.042 | [4] -0.026 | [5] -0.033 | [6] 0.03 | [7] 0.028 | [8] 0.004 | vemurafenib 0.077 | [9] -0.024 | barasertib 0.125 | [10] -0.079 | volasertib 0.059 | [11] -0.032 | [12] -0.054 | [13] -0.002 | saracatinib 0.015 | sotrastaurin 0.064

FRYL (UniProt O94915)
inactive: ibrutinib 0 | [1] 0 | ralimetinib 0.026 | [2] -0.051 | [3] -0.054 | [4] -0.01 | [5] -0.02 | [6] -0.007 | [7] 0.014 | [8] 0.027 | vemurafenib -0.002 | [9] 0.015 | barasertib 0.054 | [10] -0.01 | volasertib -0.078 | [11] 0.022 | [12] -0.058 | [13] 0.016 | saracatinib 0.014 | sotrastaurin 0.024

GBF1 (UniProt Q92538)
inactive: ibrutinib 0.007 | [1] -0.001 | ralimetinib 0.051 | [2] -0.03 | [3] -0.011 | [4] -0.003 | [5] -0.011 | [6] -0.015 | [7] 0.017 | [8] 0.012 | vemurafenib 0.023 | [9] 0.04 | barasertib 0.087 | [10] -0.004 | volasertib -0.05 | [11] 0.006 | [12] -0.011 | [13] -0.046 | saracatinib -0.011 | sotrastaurin 0.019

GALM (UniProt Q96C23)
inactive: ibrutinib -0.019 | [1] 0.003 | ralimetinib 0.008 | [2] -0.036 | [3] 0.005 | [4] 0 | [5] 0.021 | [6] 0.008 | [7] -0.023 | [8] 0.034 | vemurafenib 0.007 | [9] 0.016 | barasertib -0.018 | [10] -0.017 | volasertib -0.01 | [11] -0.004 | [12] 0 | [13] 0.012 | saracatinib 0.018 | sotrastaurin 0.01

FUBP1 isoform 2 (UniProt Q96AE4)
inactive: ibrutinib 0.015 | [1] -0.002 | ralimetinib -0.016 | [2] -0.038 | [3] 0.011 | [4] -0.022 | [5] -0.003 | [6] -0.012 | [7] -0.013 | [8] -0.028 | vemurafenib -0.018 | [9] 0 | barasertib -0.016 | [10] 0.032 | volasertib 0.017 | [11] 0.014 | [12] 0.099 | [13] 0.047 | saracatinib -0.021 | sotrastaurin -0.035

GAPVD1 isoform 6 (UniProt Q14C86)
inactive: ibrutinib 0.005 | [1] 0.003 | ralimetinib 0.031 | [2] -0.004 | [3] -0.018 | [4] 0.028 | [5] 0.008 | [6] 0.003 | [7] 0.011 | [8] 0.018 | vemurafenib 0.011 | [9] 0.006 | barasertib 0.01 | [10] -0.077 | volasertib -0.036 | [11] 0.027 | [12] 0.046 | [13] -0.083 | saracatinib 0.014 | sotrastaurin 0.012

FTL (UniProt P02792)
inactive: ibrutinib -0.026 | [1] -0.025 | ralimetinib -0.146 | [2] -0.257 | [3] 0.023 | [4] 0.027 | [5] 0.041 | [6] 0.023 | [7] 0.033 | [8] 0.053 | vemurafenib -0.063 | [9] 0.047 | barasertib -0.005 | [10] 0.03 | volasertib 0.06 | [11] -0.327 | [12] -0.041 | [13] 0.092 | saracatinib 0.058 | sotrastaurin 0.036

FXR2 (UniProt P51116)
inactive: ibrutinib 0.027 | [1] -0.008 | ralimetinib 0.028 | [2] 0.004 | [3] 0.026 | [4] 0.024 | [5] 0.004 | [6] -0.005 | [7] -0.018 | [8] 0.011 | vemurafenib 0 | [9] 0.041 | barasertib -0.003 | [10] -0.021 | volasertib -0.028 | [11] 0.028 | [12] 0.007 | [13] -0.076 | saracatinib 0.034 | sotrastaurin -0.009

GCSH (UniProt P23434)
inactive: ibrutinib 0.047 | [1] 0.004 | ralimetinib 0.014 | [2] -0.081 | [3] 0.039 | [4] -0.023 | [5] -0.013 | [6] -0.008 | [7] 0.032 | [8] -0.06 | vemurafenib -0.021 | [9] 0.123 | barasertib 0.043 | [10] 0.071 | volasertib 0.046 | [11] -0.02 | [12] -0.002 | [13] -0.009 | saracatinib -0.028 | sotrastaurin 0.006

GALC (UniProt P54803)
inactive: ibrutinib 0.037 | [1] -0.006 | ralimetinib 0.087 | [2] -0.022 | [3] -0.006 | [4] 0.08 | [5] -0.005 | [6] 0.123 | [7] -0.052 | [8] 0.01 | vemurafenib -0.054 | [9] 0.021 | barasertib 0.055 | [10] 0.035 | volasertib 0.021 | [11] -0.024 | [12] -0.13 | [13] 0.092 | saracatinib 0.05 | sotrastaurin 0
